{
  "source": "paper PMC3374827",
  "binders": {"B1": {"name": "Dormancy associated translation inhibitor (DATIN), protein encoded by Rv0079 of Mycobacterium tuberculosis, His-tagged recombinant (protein, UniProt P9WMA9 1-273)", "chain": "MEPKRSRLVVCAPEPSHAREFPDVAVFSGGRANASQAERLARAVGRVLADRGVTGGARVRLTMANCADGPTLVQINLQVGDTPLRAQAATAGIDDLRPALIRLDRQIVRASAQWCPRPWPDRPRRRLTTPAEALVTRRKPVVLRRATPLQAIAAMDAMDYDVHLFTDAETGEDAVVYRAGPSGLRLARQHHVFPPGWSRCRAPAGPPVPLIVNSRPTPVLTEAAAVDRAREHGLPFLFFTDQATGRGQLLYSRYDGNLGLITPTGDGVADGLA"}},
  "target": "Dormancy associated translation inhibitor (DATIN), protein encoded by Rv0079 of Mycobacterium tuberculosis, His-tagged recombinant (Mycobacterium tuberculosis) (UniProt P9WMA9)",
  "experiment": "SEC; both purified",
  "note": "Results are given in words; binding and its absence hold for the method and conditions named. Tags and fused reporters may be left off the sequences shown.",
  "data": [
    {"binder": "B1", "values": [
      {"measurement": "binding", "result": "no binding"}
    ]}
  ]
}
